According to PMC12638251, “Uridine-sensitized screening identifies demethoxy-coenzyme Q and NUDT5 as regulators of nucleotide synthesis” (Nature Metabolism, 2025):
No constants are given. Whether binding was seen depends on the method and setting. Some binding calls cover weakened binding; strength is not graded here.

The chains behind the UniProt entries cited, without tags or fusion partners. Residues count along the entry.
UniProt Q8CIH9, residues 12-517: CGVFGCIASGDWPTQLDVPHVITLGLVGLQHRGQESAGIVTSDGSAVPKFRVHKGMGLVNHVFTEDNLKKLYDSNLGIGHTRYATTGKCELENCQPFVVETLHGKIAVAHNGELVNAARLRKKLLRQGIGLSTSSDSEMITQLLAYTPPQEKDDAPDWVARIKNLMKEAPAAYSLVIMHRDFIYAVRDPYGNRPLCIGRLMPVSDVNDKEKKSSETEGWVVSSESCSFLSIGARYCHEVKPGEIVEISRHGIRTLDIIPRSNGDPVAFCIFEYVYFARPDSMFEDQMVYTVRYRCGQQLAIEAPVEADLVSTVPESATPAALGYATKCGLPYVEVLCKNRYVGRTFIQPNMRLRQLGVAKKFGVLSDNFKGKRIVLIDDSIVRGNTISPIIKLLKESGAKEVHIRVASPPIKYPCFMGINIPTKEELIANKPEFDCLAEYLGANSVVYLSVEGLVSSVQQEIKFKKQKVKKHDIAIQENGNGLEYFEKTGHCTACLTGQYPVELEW
UniProt Q06203, residues 12-517: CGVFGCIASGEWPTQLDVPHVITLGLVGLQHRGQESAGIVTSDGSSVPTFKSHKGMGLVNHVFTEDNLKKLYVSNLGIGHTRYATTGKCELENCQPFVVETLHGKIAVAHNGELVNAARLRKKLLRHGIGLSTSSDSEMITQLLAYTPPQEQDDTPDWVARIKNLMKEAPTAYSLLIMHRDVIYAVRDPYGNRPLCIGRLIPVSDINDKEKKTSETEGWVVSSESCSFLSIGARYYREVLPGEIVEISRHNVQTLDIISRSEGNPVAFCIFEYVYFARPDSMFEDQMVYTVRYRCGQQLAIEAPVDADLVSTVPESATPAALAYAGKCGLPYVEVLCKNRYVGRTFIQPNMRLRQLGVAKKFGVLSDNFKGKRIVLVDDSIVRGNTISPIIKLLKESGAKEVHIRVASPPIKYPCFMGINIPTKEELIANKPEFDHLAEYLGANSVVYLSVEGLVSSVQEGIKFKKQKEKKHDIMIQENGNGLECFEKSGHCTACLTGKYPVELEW
UniProt Q9JKX6: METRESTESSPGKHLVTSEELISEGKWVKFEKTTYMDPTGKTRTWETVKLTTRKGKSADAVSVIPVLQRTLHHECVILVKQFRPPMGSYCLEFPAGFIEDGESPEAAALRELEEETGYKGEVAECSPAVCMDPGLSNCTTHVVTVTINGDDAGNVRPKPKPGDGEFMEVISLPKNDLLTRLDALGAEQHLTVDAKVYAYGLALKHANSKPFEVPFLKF

Tests used:
[1] = target: PPAT (endogenous, mouse) (mouse (endogenous in organs of C57BL/6J mice)) (UniProt Q8CIH9); test: condition: only with 10 mM PRPP in the lysis buffer; native gel or EMSA; parallel native PAGE of mouse organ homogenates with 10 mM PRPP added, 1–16 h at 4 °C, immunoblot for NUDT5 and PPAT
[2] = target: PPAT (endogenous, human) (human (endogenous in 293T, K562 and other human cell lines)) (UniProt Q06203); test: native gel or EMSA; parallel native PAGE (4–16% gel) of human cell lysates in 1× Native Buffer with 1% digitonin, immunoblot for NUDT5 and PPAT; K562 (wild type, NUDT5 KO clones, KO clones with cDNA complementation) and other cell lines; untreated

Row | binding [1] | binding [2] | Substance
1 | no binding | – | NUDT5 (endogenous, mouse) (from UniProt Q9JKX6 1-218) (enzyme)
2 | – | binds | PPAT (endogenous, human) (from UniProt Q06203 12-517) (enzyme; other documents disagree on this pair)
